Binding data for one molecule are collected here from article PMC4995097, “Talin-KANK1 interaction controls the recruitment of cortical microtubule stabilizing complexes to focal adhesions” (eLife, 2016).

This assay has as its target T1, BioGFP-tagged KANK1 (full-length) (human) (UniProt Q14678).
T1 sequence (chain, biotinylated on the Bio tag (by BirA)): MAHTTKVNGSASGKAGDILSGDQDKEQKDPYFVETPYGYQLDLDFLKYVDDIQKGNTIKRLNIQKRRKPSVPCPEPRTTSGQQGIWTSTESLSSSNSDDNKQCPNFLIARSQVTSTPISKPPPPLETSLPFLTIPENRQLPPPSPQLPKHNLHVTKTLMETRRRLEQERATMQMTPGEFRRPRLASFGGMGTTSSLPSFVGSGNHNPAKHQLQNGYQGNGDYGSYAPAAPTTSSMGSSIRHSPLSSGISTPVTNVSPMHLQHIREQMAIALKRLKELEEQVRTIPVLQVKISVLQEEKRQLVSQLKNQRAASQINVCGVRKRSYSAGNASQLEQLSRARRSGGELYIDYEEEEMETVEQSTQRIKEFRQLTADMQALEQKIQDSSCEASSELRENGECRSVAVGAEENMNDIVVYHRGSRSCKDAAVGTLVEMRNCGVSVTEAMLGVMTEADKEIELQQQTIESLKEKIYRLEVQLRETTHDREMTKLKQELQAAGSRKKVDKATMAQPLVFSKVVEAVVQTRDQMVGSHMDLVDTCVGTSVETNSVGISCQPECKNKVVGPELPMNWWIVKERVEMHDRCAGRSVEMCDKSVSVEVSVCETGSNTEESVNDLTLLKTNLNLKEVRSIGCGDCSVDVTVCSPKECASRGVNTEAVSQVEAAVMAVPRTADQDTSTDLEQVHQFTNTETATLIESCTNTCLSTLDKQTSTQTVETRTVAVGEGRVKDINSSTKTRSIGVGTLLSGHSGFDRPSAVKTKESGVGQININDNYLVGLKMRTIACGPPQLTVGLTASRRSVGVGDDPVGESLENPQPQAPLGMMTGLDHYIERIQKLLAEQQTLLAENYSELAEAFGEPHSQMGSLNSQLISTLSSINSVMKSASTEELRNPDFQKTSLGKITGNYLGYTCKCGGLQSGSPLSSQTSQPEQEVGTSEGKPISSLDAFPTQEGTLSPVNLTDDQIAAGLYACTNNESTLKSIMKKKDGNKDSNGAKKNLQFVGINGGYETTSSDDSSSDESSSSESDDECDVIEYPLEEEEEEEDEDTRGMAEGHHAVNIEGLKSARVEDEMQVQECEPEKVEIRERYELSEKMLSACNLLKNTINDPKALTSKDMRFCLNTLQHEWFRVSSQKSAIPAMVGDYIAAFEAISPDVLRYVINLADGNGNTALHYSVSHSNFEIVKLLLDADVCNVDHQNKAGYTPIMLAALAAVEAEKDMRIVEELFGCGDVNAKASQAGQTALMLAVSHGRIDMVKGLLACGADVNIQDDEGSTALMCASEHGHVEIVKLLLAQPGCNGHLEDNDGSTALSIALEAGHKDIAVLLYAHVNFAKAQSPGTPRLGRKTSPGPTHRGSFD
Briefly: affinity purification with mass spectrometry; Bio-GFP-tagged KANK1 or its N- and C-terminal fragments co-expressed with biotin ligase BirA in HEK293T; streptavidin beads; endogenous preys found by nanoLC-MS/MS.

Results are given in words; binding and its absence hold for the method and conditions named. In cells and extracts the contact can be indirect. A yes stands for co-enrichment or nearness to the bait. Other partners may have been found. Tags and fused reporters may be left off the sequences shown.

B1: LL5β (endogenous, HEK293T) (protein, UniProt Q86SQ0 1-1253)
chain: MEEHSYIQKELDLQNGSLEEDSVVHSVENDSQNMMESLSPKKYSSSLRFKANGDYSGSYLTLSQPVPAKRSPSPLGTSVRSSPSLAKIQGSKQFSYDGTDKNIPMKPPTPLLNTTSSLSGYPLGRADFDHYTGRDSERALRLSEKPPYSKYSSRHKSHDNVYSLGGLEGRKASGSLLAMWNGSSLSDAGPPPISRSGAASMPSSPKQARKMSIQDSLALQPKLTRHKELASENINLRTRKYSSSSLSHMGAYSRSLPRLYRATENQLTPLSLPPRNSLGNSKRTKLGEKDLPHSVIDNDNYLNFSSLSSGALPYKTSASEGNPYVSSTLSVPASPRVARKMLLASTSSCASDDFDQASYVGTNPSHSLLAGESDRVFATRRNFSCGSVEFDEADLESLRQASGTPQPALRERKSSISSISGRDDLMDYHRRQREERLREQEMERLERQRLETILSLCAEYTKPDSRLSTGTTVEDVQKINKELEKLQLSDEESVFEEALMSPDTRYRCHRKDSLPDADLASCGSLSQSSASFFTPRSTRNDELLSDLTRTPPPPSSTFPKASSESSYLSILPKTPEGISEEQRSQELAAMEETRIVILNNLEELKQKIKDINDQMDESFRELDMECALLDGEQKSETTELMKEKEILDHLNRKIAELEKNIVGEKTKEKVKLDAEREKLERLQELYSEQKTQLDNCPESMREQLQQQLKRDADLLDVESKHFEDLEFQQLEHESRLDEEKENLTQQLLREVAEYQRNIVSRKEKISALKKQANHIVQQAQREQDHFVKEKNNLIMMLQREKENLCNLEKKYSSLSGGKGFPVNPNTLKEGYISVNEINEPCGNSTNLSPSTQFPADADAVATEPATAVLASQPQSKEHFRSLEERKKQHKEGLYLSDTLPRKKTTSSISPHFSSATMGRSITPKAHLPLGQSNSCGSVLPPSLAAMAKDSESRRMLRGYNHQQMSEGHRQKSEFYNRTASESNVYLNSFHYPDHSYKDQAFDTLSLDSSDSMETSISACSPDNISSASTSNIARIEEMERLLKQAHAEKTRLLESREREMEAKKRALEEEKRRREILEKRLQEETSQRQKLIEKEVKIRERQRAQARPLTRYLPVRKEDFDLRSHVETAGHNIDTCYHVSITEKTCRGFLIKMGGKIKTWKKRWFVFDRNKRTFSYYADKHETKLKGVIYFQAIEEVYYDHLKNANKSPNPLLTFSVKTHDRIYYMVAPSPEAMRIWMDVIVTGAEGYTHFLL
For the molecule B1, the binding entry is “binds”.
